Results from PMC10914614.

B1: 50S ribosomal protein uL30 (protein, UniProt Q9HWF3 1-58)
chain: MATVKVTLVKSLNGRLANHKACVKGLGLRRINHTVEVQDTPENRGMINKAYYLLRVEG
B2: 50S ribosomal protein bL35 (protein, UniProt Q9I0A1 1-64)
chain: MPKMKTKSGAAKRFKKTAGGLKHKHAFKSHILTKMTTKRKRQLRGTSMLNKSDVARVERSLRLR

Biological target: FLAG-tagged ΦKZ014 (ΦKZ014-FLAG) (Pseudomonas phage ΦKZ)
Test: affinity purification with mass spectrometry; anti-FLAG pull-down of ectopically expressed ΦKZ014-FLAG from infected cells at 1 mM or 10 mM magnesium; eluted with FLAG peptide; MS of the eluates

Binder | binding
B1 | binds
B2 | binds

No constants are given. Whether binding was seen depends on the method and setting. Binding seen in cells or lysates may run through a third protein. A yes stands for co-enrichment or nearness to the bait. Other partners may have been found.
